Measurements published in paper PMC8932751 (Clinical and Translational Science, 2021).

Experiments:
[1] = not given; remark: listed apart in the source
[2] = adjusted for the administered dose

θSLCO1B1 521CC (covariate effect on CL/F) (CL/F = θCL × (1 + θSLCO1B1), CC homozygotes, investigation cohort): −0.041 | θSLCO1B1 521TC (covariate effect on CL/F) (CL/F = θCL × (1 + θSLCO1B1), heterozygotes, investigation cohort): −0.402 | ωCL support (SD), between-subject variability (support datasets): 0.195 | decrease in CK levels for each increment of 1 L h^−1 in CL/F ([1]; linear regression): 0.20 units | CL/F threshold for risk of myalgia (ROC) ([1]; sensitivity 83.3%, specificity 73.0%, ROC AUC 0.77): 414.67 L/h
SMILES: CC(C)c1c(C(=O)Nc2ccccc2)c(-c2ccccc2)c(-c2ccc(F)cc2)n1CC[C@@H](O)C[C@@H](O)CC(=O)O [atorvastatin]
correlation between CL/F and change in LDL cholesterol from baseline (r) [2]: −0.49 | correlation between CL/F and change in total cholesterol from baseline (r) [2]: −0.44
